The name of at least one read-out is uncertain.
Test: Test for determining the amount of uptake of positron-emitting source compound (PET of brain after intravenous injection)
Assay type: in vivo
Conditions: rhesus monkey
Protocol: A rhesus monkey (male, 5.5 kg in weight) was fasted overnight prior to the assay date. The monkey was seated on a monkey chair, and its head was fixed in a gantry of an animal PET camera (SHR-7700 manufactured by Hamamatsu Photonics K.K.) by a head positioner. Transmission measurement was performed for 30 minutes for […]. The injection products prepared in Production Examples 1-3 and 2 were then intravenously administered in doses of 77 ng/kg weight in terms of the amount of compound (Ia) and 230 ng/kg weight in terms of the amount of compound (Ib), respectively, and dynamic measurement was performed for 180 minutes. After the obtained images were reconstituted, a region of interest (ROI) was set in each part of the brain, and kinetics of radioactivity was determined in each region.

## O=C(Oc1ccc([76Br])cc1)N1CCN2CCC1CC2 [Compound (Ib), 4-[^76Br]bromophenyl 1,4-diazabicyclo[3.2.2]nonane-4-carboxylate]
  permeability to the blood-brain barrier: excellent

## [11CH3]c1ccc(OC(=O)N2CCN3CCC2CC3)cc1 [Compound (Ia), 4-[^11C]methyl-phenyl 1,4-diazabicyclo[3.2.2]nonane-4-carboxylate]
  permeability to the blood-brain barrier: excellent

From patent US20090087378A1, “Positron Tomography Method and Positron-Emitting Compound to Be Used Therein” (NARD INSTITUTE, LTD., priority 2006, published 2009)
